Here are results for 42 sequences from PMC7819943, “Rice protein-binding microarrays: a tool to detect cis-acting elements near promoter regions in rice”.

Sequences of proteins named here, by UniProt entry; tags and fusion partners are left off.
UniProt Q0JBA9, entry or part of it: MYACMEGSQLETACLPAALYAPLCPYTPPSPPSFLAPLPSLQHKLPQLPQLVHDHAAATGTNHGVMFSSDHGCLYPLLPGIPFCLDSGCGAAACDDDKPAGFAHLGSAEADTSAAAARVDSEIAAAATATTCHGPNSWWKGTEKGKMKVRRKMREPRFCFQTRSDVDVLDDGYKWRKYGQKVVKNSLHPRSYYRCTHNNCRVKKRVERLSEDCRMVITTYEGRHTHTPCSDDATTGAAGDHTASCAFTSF

The list shows a part of the results.

The test addresses OsWRKY34 (Oryza sativa, UniProt Q0JBA9 1-250). In words: protein-binding microarray (RPBM); PBS, 2% BSA, 51.3 ng/ul salmon testes DNA, 50 uM zinc acetate, 200 nM TF, 25 C, 1 h; high values mean tight binding. The note with it: protein: recombinant; tags: N-terminal polyhistidine and DsRed monomer fusion (pET32a); label: CyDye5-dUTP incorporated in the synthesized complementary strand; 3' TTTTT single-stranded linker to array surface; dsDNA, one strand shown. In outline:
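Polyhistidine-tagged DsRed fusions of transcription factors, joined at the N-terminus, were expressed in E. coli BL21-CodonPlus and isolated on Ni–NTA. They were incubated at 200 nM for 1 h at 25 °C on a custom Agilent array, double-stranded and BSA-blocked, in PBS with 2% BSA, salmon testes DNA and 50 µM zinc acetate. The binding signal is per-feature fluorescence intensity (arbitrary units) read on an Axon 4000B scanner after washing.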
Take “CTCATCCAAATTTGTGTTTATAAATGTACTATATATATTTCGGAGTCACCTAGTGCAG”: the binding signal was 8420 fluorescence intensity (a.u.).
In the case of “GCAGTGAACATGGCCACGGCCGGTGCTTGTGGTTTGACTACGGAGTCACCTAGTGCAG”, the binding signal is 8380 fluorescence intensity (a.u.).
On to “TAGCAGCCAATTAGTCCACTTAATCACCCATGGATCGCGACGGAGTCACCTAGTGCAG”, for which the binding signal is 8280 fluorescence intensity (a.u.).
Consider “ATATACAGCCATATACTACTACCACCACCACTTAAGTTCACGGAGTCACCTAGTGCAG”, for which the binding signal was 8800 fluorescence intensity (a.u.).
With “CACTAACGCTCACACACACTAGGCTCCAACACCAACCCAACGGAGTCACCTAGTGCAG”, the binding signal was 9190 fluorescence intensity (a.u.).
With “GATTCACCGTCGCGCCGCCGCCGCATGCTCTGCTCTCTCGCGGAGTCACCTAGTGCAG”, the binding signal is 10300 fluorescence intensity (a.u.).
As for “GCATCCGTGTCCTTTGCCGAAGCCGAAGGCCCGCTCTCTCCGGAGTCACCTAGTGCAG”, the binding signal is 8900 fluorescence intensity (a.u.).
In the case of “CCTCGCCTCTCTCTCTCTCTCTCTTTCTCTGCTCTCTCTGCGGAGTCACCTAGTGCAG” it was 10200 fluorescence intensity (a.u.); in that of “ACCGCACAGGACGAGGACCACCACCACCTCGCTTTCCATTCGGAGTCACCTAGTGCAG”, 9010 fluorescence intensity (a.u.); in that of “GCTCCTTAACAATCTGCACTTTCTTTTTTGCATAAACACACGGAGTCACCTAGTGCAG”, 8080 fluorescence intensity (a.u.).
In the case of “CTAACAACCTGCTGGCGACTTATTCTCCACACCGTTGCAACGGAGTCACCTAGTGCAG” it was 8250 fluorescence intensity (a.u.).
In the case of “CTTAATTACGTCATCGTCAACTCGCCGTTTAGTTTAGTCTCGGAGTCACCTAGTGCAG”, the binding signal is 9910 fluorescence intensity (a.u.).
The value for “CCAGTGGCAATCCTTGACACTTGGTCACAATTTTCTCTGCCGGAGTCACCTAGTGCAG” was 8270 fluorescence intensity (a.u.); that for “CTCGTACTAGGGTGTCATGCTGTTGGTTCCGGTGAATCTTCGGAGTCACCTAGTGCAG” was 8270 fluorescence intensity (a.u.); that for “GCTTGGGGACGGCGGGGTGGTGGCGCTCACGCCCGCGGCGCGGAGTCACCTAGTGCAG” was 9540 fluorescence intensity (a.u.).
In the case of “CGTCTTATTGTTGGTCGTTGACAAGTTTTGGTTGGGCATGCGGAGTCACCTAGTGCAG” it was 9490 fluorescence intensity (a.u.); in that of “TTGTTTGATATGTGCTTTTGTTATTGTTTCCTGCACATCACGGAGTCACCTAGTGCAG”, 13700 fluorescence intensity (a.u.); in that of “CACCCAAAACTTAACGCTTCCCAGTTCCGTTTCCCACACTCGGAGTCACCTAGTGCAG”, 8420 fluorescence intensity (a.u.).
In the case of “TTATACCCTTCTGGTTGTTTCATGACTGTCTGTTTGAATTCGGAGTCACCTAGTGCAG” it was 13100 fluorescence intensity (a.u.).
For the sequence “CCCAACCTCGCCGTCGCCGTCGCCGTCGCCGCCGTCTCCGCGGAGTCACCTAGTGCAG”, the binding signal is 10000 fluorescence intensity (a.u.).
For the sequence “TGCCATGTGTATAGGGTGGTTGGTGGCCGCCTTGGGGATTCGGAGTCACCTAGTGCAG”, the binding signal is 8280 fluorescence intensity (a.u.).
As to “TGCAGATATTGGCATCGATTGCTCACTTCAGGTGATTTTTCGGAGTCACCTAGTGCAG”, the binding signal is 8060 fluorescence intensity (a.u.).
“GTTGTGTGTTCTTCTAGGGGATTCTCTCCCCGGCGATTCTCGGAGTCACCTAGTGCAG”: the binding signal is 10100 fluorescence intensity (a.u.).
For “CACGGCACCACACACACACACGTCCCGGGCCCCGTCCACCCGGAGTCACCTAGTGCAG”, the binding signal is 8990 fluorescence intensity (a.u.).
In the case of “AAGATACGTTGACTTAGTCTTCCGGAGGTGCTCATATGGACGGAGTCACCTAGTGCAG” it was 9630 fluorescence intensity (a.u.); in that of “TGGATATCCGTGCCCAACGTTTGACCATCCGTCTTATTTGCGGAGTCACCTAGTGCAG”, 8130 fluorescence intensity (a.u.).
On to “GGCGGCGGCGGCGGCGGCGGGGAGGAGGTGAAGGTGGAGGCGGAGTCACCTAGTGCAG”, for which the binding signal is 14100 fluorescence intensity (a.u.).
On to “GAACCGGTCGCCGTCCACCGCTGCATCCATCCGTCCATGTCGGAGTCACCTAGTGCAG”, for which the binding signal is 11600 fluorescence intensity (a.u.).
On to “GGGATGGATTGGTGGGGAGGATGCTAACAAGTGGTGGAGACGGAGTCACCTAGTGCAG”, for which the binding signal is 13600 fluorescence intensity (a.u.).
As for “TTTCTATTTGGCACGTGATCCTCATTTATCATGCATTTACCGGAGTCACCTAGTGCAG”, the binding signal is 11200 fluorescence intensity (a.u.).
In the case of “GCCCATTTGTCCGAAGAGCTCCTCCGGCGAGTCCCCAACACGGAGTCACCTAGTGCAG” it was 9860 fluorescence intensity (a.u.).
Turning to “CACTTATTTATCCTGTTTAGGTAACTTCACTCGAATCATTCGGAGTCACCTAGTGCAG”, the binding signal is 9510 fluorescence intensity (a.u.).
In the case of “AACATCTTCGCGAGTGTTGCTCTCTTTCGTGCCCTCTCTTCGGAGTCACCTAGTGCAG” it was 8050 fluorescence intensity (a.u.); in that of “ATCCTACCCGTTGCTTCGGCTTCTCTCTCAGCCCAAACATCGGAGTCACCTAGTGCAG”, 8270 fluorescence intensity (a.u.).
In the case of “TTGTGTTCTTCTCCTCTTACTAATACGTTGTCCGCAAATTCGGAGTCACCTAGTGCAG”, the binding signal is 9090 fluorescence intensity (a.u.).
For the sequence “ATACTATATACTACTAGTACTACTACCTCTTTGTTTCTCTCGGAGTCACCTAGTGCAG”, the binding signal was 8550 fluorescence intensity (a.u.).
In the case of “TCCACTCCACGCACACATCGACGATCTCTCCTTGTTTTTTCGGAGTCACCTAGTGCAG” it was 10900 fluorescence intensity (a.u.).
Take “GAACGGGAACACGATCTAACCTCTGCAATCCCCACGCCGCCGGAGTCACCTAGTGCAG”: the binding signal is 8350 fluorescence intensity (a.u.).
Consider “TCATATCACGTGCTTTCGAATTTTCGCTCACCATATATAACGGAGTCACCTAGTGCAG”, for which the binding signal was 13200 fluorescence intensity (a.u.).
In the case of “GCTGGTTCTAGATTCGAGTGGCTAAACTGTACCCATGTTCCGGAGTCACCTAGTGCAG” it was 8610 fluorescence intensity (a.u.); in that of “AATGGGGTATTTTGATCCAGGGGTGTAAAGTTTTGGCGTGCGGAGTCACCTAGTGCAG”, 8990 fluorescence intensity (a.u.); in that of “TTCTTTCGCCAGCTTTTGCAGTCGCCCCTTGCCGATTCCACGGAGTCACCTAGTGCAG”, 9340 fluorescence intensity (a.u.).
